Test results from patent US20130317087.

Experiments:
Test in all cases: pull-down
ILF3 (Homo sapiens) = ILF3 (Homo sapiens) (UniProt Q12906); settings: protein in cells
FMR1 (Homo sapiens) = FMR1 (Homo sapiens) (UniProt Q06787); settings: protein in cells
[1] = biological target: T1, STAU1-HA3 (hSTAU1) (Homo sapiens) (UniProt O95793); settings: protein in cells
T1 sequence (limits assumed): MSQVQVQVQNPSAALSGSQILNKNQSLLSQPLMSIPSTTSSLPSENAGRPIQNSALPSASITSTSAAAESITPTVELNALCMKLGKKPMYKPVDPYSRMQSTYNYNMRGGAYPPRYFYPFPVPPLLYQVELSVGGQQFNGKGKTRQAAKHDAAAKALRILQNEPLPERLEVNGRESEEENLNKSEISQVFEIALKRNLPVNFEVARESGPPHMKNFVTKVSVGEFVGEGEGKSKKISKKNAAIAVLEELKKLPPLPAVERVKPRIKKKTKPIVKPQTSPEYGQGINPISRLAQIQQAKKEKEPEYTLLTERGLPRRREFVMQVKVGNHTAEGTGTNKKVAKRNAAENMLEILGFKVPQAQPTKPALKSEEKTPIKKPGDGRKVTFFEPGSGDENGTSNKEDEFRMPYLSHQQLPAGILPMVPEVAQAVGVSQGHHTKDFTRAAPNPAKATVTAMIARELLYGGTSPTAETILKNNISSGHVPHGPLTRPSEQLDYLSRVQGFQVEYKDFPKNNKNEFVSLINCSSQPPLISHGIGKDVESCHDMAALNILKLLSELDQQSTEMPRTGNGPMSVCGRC

[2] = biological target: T2, STAU1 (endogenous) (Homo sapiens) (UniProt O95793); settings: co-IP via FLAG-MS2-hMGFP, formaldehyde-crosslinked HeLa; protein in cells; variant of 1/2-sbsRNA1(S) lncRNA (AF087999)
T2 sequence (limits assumed): T1 sequence (limits assumed)

UPF1 (Homo sapiens) = biological target: T3, UPF1 (Homo sapiens) (UniProt Q92900); settings: protein in cells; variant of 1/2-sbsRNA1(S) lncRNA (AF087999)
T3 sequence (looked up, limits assumed): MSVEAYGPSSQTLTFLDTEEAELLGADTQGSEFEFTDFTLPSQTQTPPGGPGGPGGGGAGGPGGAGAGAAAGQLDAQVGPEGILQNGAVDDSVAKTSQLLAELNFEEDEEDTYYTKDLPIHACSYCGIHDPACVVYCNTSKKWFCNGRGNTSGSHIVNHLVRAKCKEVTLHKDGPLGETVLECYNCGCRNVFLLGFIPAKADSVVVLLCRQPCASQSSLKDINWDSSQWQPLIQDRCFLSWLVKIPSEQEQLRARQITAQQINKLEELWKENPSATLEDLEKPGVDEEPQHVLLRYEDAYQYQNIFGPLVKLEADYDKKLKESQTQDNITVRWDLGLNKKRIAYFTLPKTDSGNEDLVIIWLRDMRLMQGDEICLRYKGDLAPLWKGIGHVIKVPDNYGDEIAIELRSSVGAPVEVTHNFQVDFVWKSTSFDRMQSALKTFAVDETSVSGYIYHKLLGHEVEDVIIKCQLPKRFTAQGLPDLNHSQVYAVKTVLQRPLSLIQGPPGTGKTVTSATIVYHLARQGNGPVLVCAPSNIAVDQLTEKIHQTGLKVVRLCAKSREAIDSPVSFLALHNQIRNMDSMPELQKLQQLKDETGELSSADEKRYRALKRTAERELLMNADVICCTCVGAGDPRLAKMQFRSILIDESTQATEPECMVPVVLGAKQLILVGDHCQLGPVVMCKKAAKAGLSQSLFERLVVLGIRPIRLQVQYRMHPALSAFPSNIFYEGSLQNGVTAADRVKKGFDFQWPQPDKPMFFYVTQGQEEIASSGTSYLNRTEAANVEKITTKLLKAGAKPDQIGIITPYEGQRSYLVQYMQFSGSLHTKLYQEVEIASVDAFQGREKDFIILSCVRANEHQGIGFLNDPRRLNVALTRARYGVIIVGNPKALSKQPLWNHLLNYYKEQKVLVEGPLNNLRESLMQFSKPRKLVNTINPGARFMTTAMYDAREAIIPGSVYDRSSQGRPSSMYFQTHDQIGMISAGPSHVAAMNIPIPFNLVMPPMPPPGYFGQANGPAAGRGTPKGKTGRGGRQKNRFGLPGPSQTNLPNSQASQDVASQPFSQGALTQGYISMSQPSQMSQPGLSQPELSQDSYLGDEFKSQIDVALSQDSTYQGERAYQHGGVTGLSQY

[3] = not co-immunoprecipitated via FLAG-MS2-hMGFP, variant of 1/2-sbsRNA1(S) lncRNA (AF087999)

Row | Sequence | binding result (ILF3 (Homo sapiens); did not co-IP with 1/2-sbsRNA1) | binding result (FMR1 (Homo sapiens); did not co-IP with 1/2-sbsRNA1) | binding result [1] | binding result (ILF3 (Homo sapiens); [3]) | binding result [2] | binding result (UPF1 (Homo sapiens)) | binding result (FMR1 (Homo sapiens); [3])
1 | CCAAGAAGUAGGUUUUUUUUUUUUUUUAAAUAAAGGAGAGACAGUCUCACUCUGUUGCCCAGGCUGGAAUACAGUGGUGUGAUCAUAGCUCACUGCAGCCUCUUUUAACUCCUGGGCUCAAGCAAUCCUUCCAACCUCAGCAUUCUGAGUAGCUGGGAUCACAGGUGCUCCCCAUCACACCCUGCUAAUUUAAUUUUCUUUGUAGAGACAGGGUCUUGCUAUGUUGCCUAGGCUGGUCUUGAACUCCUGGGCUCAAGUGAUCCUCCCGCCUCAGCCUCCCAGUGUUAGGAUUACAGGAGUGAGCCACUGCCUCUGCCUUCAGGUAGCAAUUUUAUUAGCAAACUAUAAGCCUAAAGUAAUAGUUAAAAUUCUCACUGUGAUAUUCAUUACUAACCCCUGAACCUGUACCCUUCAGCUUACCACUACAGUACUUCUGUAGUAGAGCGAGUAUGGGUUUUGGUAUCAGACAGGUCCAAAUUUGAAUUCUGGUUCUACCUUUCAUUUAUCAAAUGACUUUGGGCAAAGUACUUAACCUCUCUGAGCUUUAGUUCCCUUCUCUGUAAAAGAAUAAAAUAUUUCAGUCUUAUCGUGUAGAUGAUAUACAGAGGGCACAUAACAAAUGUUAGAUCUCUCAAAUGUUUUUCUGUAACCCAAAUAUGCUUACAACUGAUUAAAGAAUGUUCUCACU [1/2-sbsRNA1(S) lncRNA (AF087999)] | no binding | no binding | binds | – | – | – | –
2 | CCAAGAAGUAGGUUUUUUUUUUUUUUUAAAUAAAGGAGAGACAGUCUCACUCUGUUGCCCAGGCUGGAAUACAGUGGUGUGAUCAUAGCUCACUGCAGCCUCUUUUAACUCCUGGGCUCAAGCAAUCCUUCCAACCUCAGCAUUCUGAGUAGCUGGGAUCACAGGUGCUCCCCAUCACACCCUGCUAAUUUAAUUUUCUUUGUAGAGACAGGGUCUUGCUAUGUUGCCUAGGCUGGUCUUGAACUCCUGGGCUCAAGUGAUCCUCCCGCCUCAGCCUCCCAGUGUUAGGAUUACAGGAGUGAGCCACUGCCUCUGCCUUCAGGUAGCAAUUUUAUUAGCAAACUAUAAGCCUAAAGUAAUAGUUAAAAUUCUCACUGUGAUAUUCAUUACUAACCCCUGAACCUGUACCCUUCAGCUUACCACUACAGUACUUCUGUAGUAGAGCGAGUAUGGGUUUUGGUAUCAGACAGGUCCAAAUUUGAAUUCUGGUUCUACCUUUCAUUUAUCAAAUGACUUUGGGCAAAGUACUUAACCUCUCUGAGCUUUAGUUCCCUUCUCUGUAAAAGAAUAAAAUAUUUCAGUCUUAUCGUGUAGAUGAUAUACAGAGGGCACAUAACAAAUGUUAGAUCUCUCAAAUGUUUUUCUGUAACCCAAAUAUGCUUACAACUGAUUAAAGAAUGUUCUCACU [1/2-sbsRNA1(S)-MS2bs] | – | – | – | no binding | binds | binds | no binding

For at least one entry, the source does not settle the construct or the ends of the probe. Results from cells or extracts need not show a direct contact. For some of these results: Negatives hold for the conditions tested. For some of these results: Tags and fusion partners may be left off the protein sequences shown.
